Results are given in words; binding and its absence hold for the method and conditions named. Binding seen in cells or lysates may run through a third protein. Here binding means that the protein was enriched with, or labelled near, the bait; the list need not be complete. One block for each molecule: values may come before it.
Legend:
Assay in all cases: affinity purification with mass spectrometry; TAP purification of TAP-tagged INO80 subunits from wild-type S. cerevisiae grown in YPD; MudPIT, spectral counts, dNSAF
Ies1 (S. cerevisiae) = molecular target: T1, Ies1 (S. cerevisiae) (UniProt P43579)
T1 sequence: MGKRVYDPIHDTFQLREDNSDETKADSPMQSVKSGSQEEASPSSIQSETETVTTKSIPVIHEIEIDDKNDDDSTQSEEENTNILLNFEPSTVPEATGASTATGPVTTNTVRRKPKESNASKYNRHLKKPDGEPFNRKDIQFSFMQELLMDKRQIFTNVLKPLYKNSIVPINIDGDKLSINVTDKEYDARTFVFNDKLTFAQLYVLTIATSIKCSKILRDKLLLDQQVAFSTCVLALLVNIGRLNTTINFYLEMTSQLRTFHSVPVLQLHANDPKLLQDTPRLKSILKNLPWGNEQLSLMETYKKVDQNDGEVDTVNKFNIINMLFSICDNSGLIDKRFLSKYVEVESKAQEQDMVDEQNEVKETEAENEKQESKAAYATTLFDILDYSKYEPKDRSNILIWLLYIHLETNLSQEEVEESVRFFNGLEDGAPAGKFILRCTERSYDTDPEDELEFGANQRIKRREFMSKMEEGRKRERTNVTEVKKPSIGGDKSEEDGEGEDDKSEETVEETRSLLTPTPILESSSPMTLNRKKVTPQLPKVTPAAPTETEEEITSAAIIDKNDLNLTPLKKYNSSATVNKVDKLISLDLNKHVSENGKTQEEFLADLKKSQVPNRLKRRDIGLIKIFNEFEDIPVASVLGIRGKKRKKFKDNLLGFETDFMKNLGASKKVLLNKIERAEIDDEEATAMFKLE

Chains of the proteins cited; added tags and fusions are not shown.
UniProt P53115: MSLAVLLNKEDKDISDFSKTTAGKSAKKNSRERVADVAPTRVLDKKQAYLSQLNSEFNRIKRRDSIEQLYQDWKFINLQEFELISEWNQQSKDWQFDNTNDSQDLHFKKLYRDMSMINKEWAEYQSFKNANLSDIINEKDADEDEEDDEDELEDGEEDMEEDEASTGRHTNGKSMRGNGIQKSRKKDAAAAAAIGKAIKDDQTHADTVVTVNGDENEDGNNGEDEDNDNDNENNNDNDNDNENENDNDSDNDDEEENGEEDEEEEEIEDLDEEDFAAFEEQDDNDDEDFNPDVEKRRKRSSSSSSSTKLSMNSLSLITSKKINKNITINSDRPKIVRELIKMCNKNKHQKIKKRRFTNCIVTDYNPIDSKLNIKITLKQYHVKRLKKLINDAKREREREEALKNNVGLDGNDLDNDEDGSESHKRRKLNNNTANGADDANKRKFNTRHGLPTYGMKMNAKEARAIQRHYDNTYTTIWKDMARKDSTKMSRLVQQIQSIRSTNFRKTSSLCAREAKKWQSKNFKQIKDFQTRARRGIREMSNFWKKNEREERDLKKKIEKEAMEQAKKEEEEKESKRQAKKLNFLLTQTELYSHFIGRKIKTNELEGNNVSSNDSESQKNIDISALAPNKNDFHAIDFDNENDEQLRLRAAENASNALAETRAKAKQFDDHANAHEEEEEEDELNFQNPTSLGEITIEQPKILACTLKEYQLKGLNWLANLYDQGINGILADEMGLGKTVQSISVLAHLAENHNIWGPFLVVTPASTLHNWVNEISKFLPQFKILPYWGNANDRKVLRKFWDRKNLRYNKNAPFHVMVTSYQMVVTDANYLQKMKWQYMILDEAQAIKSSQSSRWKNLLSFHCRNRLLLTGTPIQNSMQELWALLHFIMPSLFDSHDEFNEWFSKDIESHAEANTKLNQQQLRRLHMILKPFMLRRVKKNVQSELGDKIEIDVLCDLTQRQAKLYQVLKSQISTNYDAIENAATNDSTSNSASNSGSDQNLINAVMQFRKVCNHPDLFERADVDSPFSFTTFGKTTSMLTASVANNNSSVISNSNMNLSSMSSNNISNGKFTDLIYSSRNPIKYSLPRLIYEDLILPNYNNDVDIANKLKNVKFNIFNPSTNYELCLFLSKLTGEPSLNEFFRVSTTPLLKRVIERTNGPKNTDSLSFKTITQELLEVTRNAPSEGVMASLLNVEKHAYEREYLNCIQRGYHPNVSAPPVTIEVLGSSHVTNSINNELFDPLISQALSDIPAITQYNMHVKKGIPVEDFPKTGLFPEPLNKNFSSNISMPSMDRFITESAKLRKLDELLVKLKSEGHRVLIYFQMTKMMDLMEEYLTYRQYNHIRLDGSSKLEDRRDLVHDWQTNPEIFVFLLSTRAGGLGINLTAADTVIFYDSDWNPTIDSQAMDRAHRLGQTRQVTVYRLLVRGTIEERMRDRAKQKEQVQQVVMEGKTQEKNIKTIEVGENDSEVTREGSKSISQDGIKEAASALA
UniProt P32591: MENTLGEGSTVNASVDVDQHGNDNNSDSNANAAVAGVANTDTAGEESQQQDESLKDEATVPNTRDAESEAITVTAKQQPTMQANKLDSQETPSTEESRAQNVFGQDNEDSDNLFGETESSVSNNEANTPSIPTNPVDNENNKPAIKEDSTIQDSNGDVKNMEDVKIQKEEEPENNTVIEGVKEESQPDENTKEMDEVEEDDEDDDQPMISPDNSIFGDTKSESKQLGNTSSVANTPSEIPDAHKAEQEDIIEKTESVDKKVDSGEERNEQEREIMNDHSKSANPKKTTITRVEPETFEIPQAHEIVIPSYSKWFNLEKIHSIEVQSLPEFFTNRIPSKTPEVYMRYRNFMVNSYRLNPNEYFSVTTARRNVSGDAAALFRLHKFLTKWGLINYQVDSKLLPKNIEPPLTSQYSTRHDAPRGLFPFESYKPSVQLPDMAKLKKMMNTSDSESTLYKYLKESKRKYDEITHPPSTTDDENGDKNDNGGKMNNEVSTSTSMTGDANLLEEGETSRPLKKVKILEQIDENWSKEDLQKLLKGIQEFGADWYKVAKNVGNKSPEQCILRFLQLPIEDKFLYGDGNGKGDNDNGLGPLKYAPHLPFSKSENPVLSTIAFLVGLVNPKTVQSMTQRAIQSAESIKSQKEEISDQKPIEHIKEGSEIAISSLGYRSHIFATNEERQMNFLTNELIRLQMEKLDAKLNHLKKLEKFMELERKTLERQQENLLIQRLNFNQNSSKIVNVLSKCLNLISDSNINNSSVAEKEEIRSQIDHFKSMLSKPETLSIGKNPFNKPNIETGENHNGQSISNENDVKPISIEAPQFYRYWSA
UniProt P53628: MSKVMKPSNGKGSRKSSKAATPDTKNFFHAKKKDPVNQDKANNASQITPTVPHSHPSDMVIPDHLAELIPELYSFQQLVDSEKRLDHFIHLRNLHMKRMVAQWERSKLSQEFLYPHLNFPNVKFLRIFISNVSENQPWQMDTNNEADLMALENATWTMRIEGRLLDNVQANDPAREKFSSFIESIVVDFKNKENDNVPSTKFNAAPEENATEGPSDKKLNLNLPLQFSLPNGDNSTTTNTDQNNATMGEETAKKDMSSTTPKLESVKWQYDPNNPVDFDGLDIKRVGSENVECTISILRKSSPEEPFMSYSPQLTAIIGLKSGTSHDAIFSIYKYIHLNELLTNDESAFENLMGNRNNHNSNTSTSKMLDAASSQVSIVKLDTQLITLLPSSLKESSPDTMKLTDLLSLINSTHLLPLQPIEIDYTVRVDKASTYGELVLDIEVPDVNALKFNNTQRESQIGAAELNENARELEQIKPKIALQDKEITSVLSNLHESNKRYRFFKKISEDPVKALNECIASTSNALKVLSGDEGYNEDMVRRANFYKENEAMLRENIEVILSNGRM

Ies5 (S. cerevisiae) = molecular target: T2, Ies5 (S. cerevisiae) (UniProt P40060)
T2 sequence: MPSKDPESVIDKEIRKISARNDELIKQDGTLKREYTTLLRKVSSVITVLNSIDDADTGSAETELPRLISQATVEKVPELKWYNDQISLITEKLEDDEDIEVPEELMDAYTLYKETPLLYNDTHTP

Ies3 (S. cerevisiae) = molecular target: T3, Ies3 (S. cerevisiae) (UniProt Q12345)
T3 sequence: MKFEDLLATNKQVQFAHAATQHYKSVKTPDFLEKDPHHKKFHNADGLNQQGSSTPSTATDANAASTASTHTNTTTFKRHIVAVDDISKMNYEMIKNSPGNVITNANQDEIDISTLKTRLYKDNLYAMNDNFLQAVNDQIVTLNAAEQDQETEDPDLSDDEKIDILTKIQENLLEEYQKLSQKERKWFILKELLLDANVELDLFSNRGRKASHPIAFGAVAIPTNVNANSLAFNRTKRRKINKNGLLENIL

Nhp10 (S. cerevisiae) = molecular target: T4, Nhp10 (S. cerevisiae) (UniProt Q03435)
T4 sequence: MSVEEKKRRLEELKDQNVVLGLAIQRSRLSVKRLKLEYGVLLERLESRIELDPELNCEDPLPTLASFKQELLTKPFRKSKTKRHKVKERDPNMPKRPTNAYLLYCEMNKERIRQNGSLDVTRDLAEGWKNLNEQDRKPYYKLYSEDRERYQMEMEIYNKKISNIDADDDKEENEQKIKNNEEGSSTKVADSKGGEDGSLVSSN

Ies2 (S. cerevisiae) = molecular target: T5, Ies2 (S. cerevisiae) (UniProt P40154)
T5 sequence: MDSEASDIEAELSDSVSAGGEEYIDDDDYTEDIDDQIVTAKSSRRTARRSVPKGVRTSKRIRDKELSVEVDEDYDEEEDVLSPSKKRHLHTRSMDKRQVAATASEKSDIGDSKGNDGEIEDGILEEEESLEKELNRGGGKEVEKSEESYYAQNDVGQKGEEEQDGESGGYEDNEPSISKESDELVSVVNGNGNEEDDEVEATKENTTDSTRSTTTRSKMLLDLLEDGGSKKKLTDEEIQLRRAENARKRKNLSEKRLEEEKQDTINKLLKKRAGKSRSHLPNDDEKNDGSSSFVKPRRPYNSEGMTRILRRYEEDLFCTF

Ies6 (S. cerevisiae) = molecular target: T6, Ies6 (S. cerevisiae) (UniProt P32617)
T6 sequence: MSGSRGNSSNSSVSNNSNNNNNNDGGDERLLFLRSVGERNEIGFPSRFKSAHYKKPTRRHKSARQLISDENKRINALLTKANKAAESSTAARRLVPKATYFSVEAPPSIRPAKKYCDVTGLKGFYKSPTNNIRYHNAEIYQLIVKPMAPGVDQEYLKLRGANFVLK

Ino80 (S. cerevisiae) = Ino80 (S. cerevisiae) (UniProt P53115)

Molecule: Ino80 (from UniProt P53115 1-1489)
binding (Ies1 (S. cerevisiae)): binds | binding (Ies5 (S. cerevisiae)): binds | binding (Ies3 (S. cerevisiae)): binds | binding (Nhp10 (S. cerevisiae)): binds

Molecule: Act1 (from UniProt P60010 1-375)
binding (Ies2 (S. cerevisiae)): binds | binding (Ies1 (S. cerevisiae)): binds | binding (Ies5 (S. cerevisiae)): binds | binding (Ies3 (S. cerevisiae)): binds | binding (Nhp10 (S. cerevisiae)): binds | binding (Ies6 (S. cerevisiae)): binds

Molecule: Swi3 (from UniProt P32591 1-825)
binding (Ino80 (S. cerevisiae)): binds

B1: Arp4 (protein, UniProt P80428 1-489)
chain: MSNAALQVYGGDEVSAVVIDPGSYTTNIGYSGSDFPQSILPSVYGKYTADEGNKKIFSEQSIGIPRKDYELKPIIENGLVIDWDTAQEQWQWALQNELYLNSNSGIPALLTEPVWNSTENRKKSLEVLLEGMQFEACYLAPTSTCVSFAAGRPNCLVVDIGHDTCSVSPIVDGMTLSKSTRRNFIAGKFINHLIKKALEPKEIIPLFAIKQRKPEFIKKTFDYEVDKSLYDYANNRGFFQECKETLCHICPTKTLEETKTELSSTAKRSIESPWNEEIVFDNETRYGFAEELFLPKEDDIPANWPRSNSGVVKTWRNDYVPLKRTKPSGVNKSDKKVTPTEEKEQEAVSKSTSPAANSADTPNETGKRPLEEEKPPKENNELIGLADLVYSSIMSSDVDLRATLAHNVVLTGGTSSIPGLSDRLMTELNKILPSLKFRILTTGHTIERQYQSWLGGSILTSLGTFHQLWVGKKEYEEVGVERLLNDRFR
binding (Ies2 (S. cerevisiae)): binds | binding (Ies1 (S. cerevisiae)): binds | binding (Ies5 (S. cerevisiae)): binds | binding (Ies3 (S. cerevisiae)): binds | binding (Nhp10 (S. cerevisiae)): binds | binding (Ies6 (S. cerevisiae)): binds

B2: Ies4 (protein, UniProt Q08561 1-116)
chain: MSQESSVLSESQEQLANNPKIEDTSPPSANSRDNSKPVLPWDYKNKAIEIKSFSGYKVNFTGWIRRDVREERQRGSEFTASDVKGSDDKATRKKEPADEDPEVKQLEKEGEDGLDS
binding (Ies2 (S. cerevisiae)): binds | binding (Ies1 (S. cerevisiae)): binds | binding (Ies5 (S. cerevisiae)): binds | binding (Ies3 (S. cerevisiae)): binds | binding (Nhp10 (S. cerevisiae)): binds | binding (Ies6 (S. cerevisiae)): binds

B3: Arp8 (protein, UniProt Q12386 1-881)
chain: MSQEEAESSIIYEEPIDIPLEDDDDEDELEEENSVPLSSQADQENAENESDDSVDNVVGSETPRSVTGLSVDPRDVADEEDEDEEGEDEDEDEDDNDVDNEDENDNDNANENENELGSSRDKRAPPAVQTSKRYKKYPKLDPAKAPPGKKVPLHLLEKRRLGRIKAAEEFAKTLKKIGIEKVETTTLPATGLFQPLMLINQKNYSSDYLKKDDQIFALRDRKFLRNNNTSQISSTNTPDVIDLKSLPHSEASAAPLNDEIDLNDPTATIVIHPGSNSIKIGFPKDDHPVVVPNCVAVPKKWLDLENSEHVENVCLQREQSEEFNNIKSEMEKNFRERMRYYKRKVPGNAHEQVVSFNENSKPEIISEKNDPSPIEWIFDDSKLYYGSDALRCVDEKFVIRKPFRGGSFNVKSPYYKSLAELISDVTKLLEHALNSETLNVKPTKFNQYKVVLVIPDIFKKSHVETFIRVLLTELQFQAVAIIQESLATCYGAGISTSTCVVNIGAAETRIACVDEGTVLEHSAITLDYGGDDITRLFALFLLQSDFPLQDWKIDSKHGWLLAERLKKNFTTFQDADVAVQLYNFMNRSPNQPTEKYEFKLFDEVMLAPLALFFPQIFKLIRTSSHKNSSLEFQLPESRDLFTNELNDWNSLSQFESKEGNLYCDLNDDLKILNRILDAHNIIDQLQDKPENYGNTLKENFAPLEKAIVQSIANASITADVTRMNSFYSNILIVGGSSKIPALDFILTDRINIWRPSLLSSASFPQFYKKLTKEIKDLEGHYVNAPDKTEDENKQILQAQIKEKIVEELEEQHQNIEHQNGNEHIFPVSIIPPPRDMNPALIIWKGASVLAQIKLVEELFITNSDWDVHGSRILQYKCIFTY
binding (Ies2 (S. cerevisiae)): binds | binding (Ies1 (S. cerevisiae)): binds | binding (Ies5 (S. cerevisiae)): binds | binding (Ies3 (S. cerevisiae)): binds | binding (Nhp10 (S. cerevisiae)): binds

B6: Eno2 (protein, UniProt P00925 1-437)
chain: MAVSKVYARSVYDSRGNPTVEVELTTEKGVFRSIVPSGASTGVHEALEMRDEDKSKWMGKGVMNAVNNVNNVIAAAFVKANLDVKDQKAVDDFLLSLDGTANKSKLGANAILGVSMAAARAAAAEKNVPLYQHLADLSKSKTSPYVLPVPFLNVLNGGSHAGGALALQEFMIAPTGAKTFAEAMRIGSEVYHNLKSLTKKRYGASAGNVGDEGGVAPNIQTAEEALDLIVDAIKAAGHDGKVKIGLDCASSEFFKDGKYDLDFKNPESDKSKWLTGVELADMYHSLMKRYPIVSIEDPFAEDDWEAWSHFFKTAGIQIVADDLTVTNPARIATAIEKKAADALLLKVNQIGTLSESIKAAQDSFAANWGVMVSHRSGETEDTFIADLVVGLRTGQIKTGAPARSERLAKLNQLLRIEEELGDKAVYAGENFHHGDKL
binding (Ino80 (S. cerevisiae)): binds

Second part, the molecule after the results:

binding (Ino80 (S. cerevisiae)): binds
Molecule: Snf12 (from UniProt P53628 1-566)

binding (Ies2 (S. cerevisiae)): binds | binding (Ies1 (S. cerevisiae)): binds | binding (Ies5 (S. cerevisiae)): binds | binding (Ies3 (S. cerevisiae)): binds | binding (Nhp10 (S. cerevisiae)): binds | binding (Ies6 (S. cerevisiae)): binds
B4: Arp5 (protein, UniProt P53946 1-755)
chain: MSSRDASLTPLKAVVIDDPPLRQTPEPFDEQSAYNPQSPIAIDFGSSKLRAGFVNHATPTHIFPNALTKFRDRKLNKNFTFVGNDTLLDQAVRSQSRSPFDGPFVTNWNLTEEILDYTFHHLGVVPDNGIPNPILLTERLATVQSQRTNWYQILFETYNVPGVTFGIDSLFSFYNYNPSGNKTGLVISCGHEDTNVIPVVDGAGILTDAKRINWGGHQAVDYLNDLMALKYPYFPTKMSYLQYETMYKDYCYVSRNYDEDIEKILTLENLDTNDVVVEAPFTEVLQPQKTEEELRIQAEKRKETGKRLQEQARLKRMEKLVQKQEEFEYFSKVRDQLIDEPKKKVLSVLQNAGFDDERDFKKYLHSLEQSLKKAQMVEAEDDSHLDEMNEDKTAQKFDLLDIADEDLNEDQIKEKRKQRFLKASQDARQKAKEEKERVAKEEEEKKLKEQQWRETDLNGWIKDKRLKLNKLIKRRKEKLKLRDEMKDRKSQVSQNRMKNLASLAEDNVKQGAKRNRHQATIDNDPNDTFGANDEDWLIYTDITQNPEAFEEALEYEYKDIVELERLLLEHDPNFTEEDTLEAQYDWRNSILHLFLRGPRPHDSENIHEQHQMHLNVERIRVPEVIFQPTMGGQDQAGICELSETILLKKFGSQPGKLSQTSIDMVNNVLITGGNAKVPGLKERIVKEFTGFLPTGTNITVNMSSDPSLDAWKGMAALARNEEQYRKTVISKKEYEEYGPEYIKEHKLGNTKYFED

binding (Ies2 (S. cerevisiae)): binds | binding (Ies1 (S. cerevisiae)): binds | binding (Ies5 (S. cerevisiae)): binds | binding (Ies3 (S. cerevisiae)): binds | binding (Nhp10 (S. cerevisiae)): binds
B5: Ies6 (protein, UniProt P32617 1-166)
chain: T6 sequence

Source: article PMC5341041
